Measurements reported in PubChem BioAssay AID1224830 (NIAID, 2016).
Here is one part, drawn at random, of about 18,000 reagents. About 2,900 of them (16%) were called active. 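Calls are made per well; low scores hint the gene aids the LPS response, high scores that it dampens it.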 Repeated entries: four replicate wells of each siRNA pool.

Screen: 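Genes whose knock-down alters the TNF-alpha reporter response to LPS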 (primary screen)
Cell system: human THP-1 monocytic leukaemia cells, TNF dual-luciferase reporter clone, PMA-differentiated to macrophage-like cells
Reagents: siRNA pool against human genes, 50 nM
Time to read-out: LPS for 4 h, given about 3 days after siRNA transfection
Treatment: bacterial LPS (TLR4 ligand), 10 ng/ml
Detection: 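TNF firefly reporter luminescence divided by renilla, normalised to the plate median, then turned into a robust z-score for each replicate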
Reading the numbers: TNF reporter robust z-score: higher = stronger TNF reporter response to LPS
Rule for the call: 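Each well counts as active if its z-score is over 2.8 or under -1.5; controls are left without a call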

gene knocked down	TNF reporter robust z-score	Call
CD300A (CD300a molecule)	-0.49	inactive
CD300A (CD300a molecule)	-0.85	inactive
CD300A (CD300a molecule)	-0.53	inactive
CD300A (CD300a molecule)	0.13	inactive
HNRNPCL1 (heterogeneous nuclear ribonucleoprotein C like 1)	-0.85	inactive
HNRNPCL1 (heterogeneous nuclear ribonucleoprotein C like 1)	-1.19	inactive
HNRNPCL1 (heterogeneous nuclear ribonucleoprotein C like 1)	-1.18	inactive
HNRNPCL1 (heterogeneous nuclear ribonucleoprotein C like 1)	-0.49	inactive
SULT1B1 (sulfotransferase family 1B member 1)	0.76	inactive
SULT1B1 (sulfotransferase family 1B member 1)	0.79	inactive
SULT1B1 (sulfotransferase family 1B member 1)	0.17	inactive
SULT1B1 (sulfotransferase family 1B member 1)	0.97	inactive
EIF4EBP2	-0.41	inactive
EIF4EBP2	-0.6	inactive
EIF4EBP2	-0.84	inactive
EIF4EBP2	0.33	inactive
MTDH (metadherin)	-0.95	inactive
MTDH (metadherin)	2.57	inactive
MTDH (metadherin)	2.27	inactive
MTDH (metadherin)	-0.29	inactive
DCLRE1B (DNA cross-link repair 1B)	0.46	inactive
DCLRE1B (DNA cross-link repair 1B)	1.09	inactive
DCLRE1B (DNA cross-link repair 1B)	0.4	inactive
DCLRE1B (DNA cross-link repair 1B)	0.16	inactive
TBXA2R (thromboxane A2 receptor)	-1.29	inactive
TBXA2R (thromboxane A2 receptor)	-0.19	inactive
TBXA2R (thromboxane A2 receptor)	-0.04	inactive
TBXA2R (thromboxane A2 receptor)	-0.45	inactive
PECR (peroxisomal trans-2-enoyl-CoA reductase)	0.12	inactive
PECR (peroxisomal trans-2-enoyl-CoA reductase)	-0.57	inactive
PECR (peroxisomal trans-2-enoyl-CoA reductase)	0.3	inactive
PECR (peroxisomal trans-2-enoyl-CoA reductase)	1.09	inactive
BAGE (B melanoma antigen)	0.14	inactive
BAGE (B melanoma antigen)	0.09	inactive
BAGE (B melanoma antigen)	0.4	inactive
FBXW8 (F-box and WD repeat domain containing 8)	0.29	inactive
FBXW8 (F-box and WD repeat domain containing 8)	3.58	active
FBXW8 (F-box and WD repeat domain containing 8)	1.18	inactive
FBXW8 (F-box and WD repeat domain containing 8)	-0.02	inactive
FAF2 (Fas associated factor family member 2)	1.06	inactive
FAF2 (Fas associated factor family member 2)	1.91	inactive
FAF2 (Fas associated factor family member 2)	1.39	inactive
FAF2 (Fas associated factor family member 2)	0.93	inactive
VMA22 (vacuolar ATPase assembly factor VMA22)	0.22	inactive
VMA22 (vacuolar ATPase assembly factor VMA22)	0.31	inactive
VMA22 (vacuolar ATPase assembly factor VMA22)	0.1	inactive
VMA22 (vacuolar ATPase assembly factor VMA22)	0.17	inactive

5 entries from above, arranged by “TNF reporter robust z-score”, low to high.
gene knocked down	TNF reporter robust z-score	Call
TBXA2R (thromboxane A2 receptor)	-1.29	inactive
DCLRE1B (DNA cross-link repair 1B)	0.16	inactive
DCLRE1B (DNA cross-link repair 1B)	0.4	inactive
DCLRE1B (DNA cross-link repair 1B)	0.46	inactive
DCLRE1B (DNA cross-link repair 1B)	1.09	inactive
